The target in assay [1] is T1, Flag-tagged mouse S100A9 (mouse) (UniProt P31725).
T1 sequence: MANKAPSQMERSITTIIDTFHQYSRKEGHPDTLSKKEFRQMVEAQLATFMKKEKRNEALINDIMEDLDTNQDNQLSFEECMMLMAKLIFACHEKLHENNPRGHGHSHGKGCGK
Put plainly: co-IP; HEK293T cells transiently expressing Flag-S100A9 together with METTL9 (WT)-HA or METTL9 (ΔSP)-HA; lysis buffer 20 mM Hepes-KOH pH 7.9, 150 mM NaCl, 0.1% Triton X-100, 0.1 mM EDTA; precipitated with ANTI-FLAG M2 Affinity Gel, blot with anti-Flag and anti-HA; normal mouse IgG as negative control.

Chains of the proteins cited; added tags and fusions are not shown. Lines headed by an entry give the natural chain unless they say otherwise; changes in a name come on top. Residues count along the entry.
UniProt Q9EPL4, residues 19-318: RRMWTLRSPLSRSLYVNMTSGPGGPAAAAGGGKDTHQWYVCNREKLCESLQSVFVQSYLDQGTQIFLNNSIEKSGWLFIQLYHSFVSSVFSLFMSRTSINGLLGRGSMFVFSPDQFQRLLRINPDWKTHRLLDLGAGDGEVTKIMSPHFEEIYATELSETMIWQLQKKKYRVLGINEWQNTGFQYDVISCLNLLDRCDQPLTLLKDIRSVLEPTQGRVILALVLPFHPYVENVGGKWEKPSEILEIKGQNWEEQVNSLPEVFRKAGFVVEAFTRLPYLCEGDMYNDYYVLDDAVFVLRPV

Assay [2] deals with T2, GST-fused mouse S100A8 (mouse) (UniProt P27005).
T2 sequence: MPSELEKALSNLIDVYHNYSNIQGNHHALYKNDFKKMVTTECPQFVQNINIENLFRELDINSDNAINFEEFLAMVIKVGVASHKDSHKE
Nature of the assay: pull-down; GST or GST-S100A8 immobilised on glutathione beads, mixed for 3 h at 4 °C with whole-cell lysates of HEK293T cells expressing Flag-mS100A9 (cells transfected beforehand with control or METTL9 siRNA); blot with anti-Flag; only the target purified.

No constants are given. Whether binding was seen depends on the method and setting. Binding seen in cells or lysates may run through a third protein. Some binding calls cover weakened binding; strength is not graded here. Where a sequence is shown, tags or fusion partners need not be part of it.

For two molecules, binding results are on record in publication PMC8571522, “siRNA screening identifies METTL9 as a histidine Nπ-methyltransferase that targets the proinflammatory protein S100A9” (The Journal of Biological Chemistry, 2021).

For “METTL9ΔSP-HA, deletion mutant of mouse METTL9-HA lacking the signal peptide (from UniProt Q9EPL4 19-318) (domain or fragment)”, the binding result in assay [1] was “binds”.

B1: Flag-tagged mouse S100A9 (protein, UniProt P31725 1-113)
chain: T1 sequence
For B1, the binding entry in assay [2] is “binds”.
